Drawing on US20070190024A1 (INSERM INSTITUT NATIONAL DE LA SANTE ET DE LA RECH, published 2007), this text covers binding for one molecule.

In this assay the target is IL-6Rα. Description: RIA with 32P-labelled H/V-D/A.

These are yes or no findings as the source states them, for the method shown.

B1: H/V-D/A mutein (FPΔIL-11 with H182V and D186A) (ligand)
chain: MDYKDDDDKEGRRASVASPDPRAELDSTVLLTRSLLADTRQLAAQLRDKFPADGDHNLDSLPTLAMSAGALGALQLPGVLTRLRADLLSYLRHVQWLRRAGGSSLKTLEPELGTLQARLDRLLRRLQLLMSRLALPQPPPDPPAPPLAPPSSAWGGIRAAHAILGGLVLTLAWAVRGLLLLKTRL
notes: in SPR it was unlabelled; also called H182V+D186A; mutant FPΔIL-11
Regarding B1, the binding result is recorded as “no binding”.
